Experimental data as given in PubChem BioAssay AID588590 (National Center for Advancing Translational Sciences (NCATS), 2011).
Among all 390,000 compounds or so, about 4,000 (1%) were called active. This list was built around the results that the source calls inconclusive (neither active nor inactive); the mix of calls is not that of the screen. Calls follow the shape of the dose curve; as a rule, active = well fitted inhibition curve with a large enough effect; inconclusive = small, poorly fitted or top-dose-only effect, or another doubt; inactive = no such curve, though single readings can be large or run the other way. Potencies beside an inconclusive call are fits to weak or partial responses and may not hold up.

Amino acid sequences for entries named in this document (tags omitted). A change or cut given only in a name is not applied to a line headed by its entry.
UniProt Q9UNA4: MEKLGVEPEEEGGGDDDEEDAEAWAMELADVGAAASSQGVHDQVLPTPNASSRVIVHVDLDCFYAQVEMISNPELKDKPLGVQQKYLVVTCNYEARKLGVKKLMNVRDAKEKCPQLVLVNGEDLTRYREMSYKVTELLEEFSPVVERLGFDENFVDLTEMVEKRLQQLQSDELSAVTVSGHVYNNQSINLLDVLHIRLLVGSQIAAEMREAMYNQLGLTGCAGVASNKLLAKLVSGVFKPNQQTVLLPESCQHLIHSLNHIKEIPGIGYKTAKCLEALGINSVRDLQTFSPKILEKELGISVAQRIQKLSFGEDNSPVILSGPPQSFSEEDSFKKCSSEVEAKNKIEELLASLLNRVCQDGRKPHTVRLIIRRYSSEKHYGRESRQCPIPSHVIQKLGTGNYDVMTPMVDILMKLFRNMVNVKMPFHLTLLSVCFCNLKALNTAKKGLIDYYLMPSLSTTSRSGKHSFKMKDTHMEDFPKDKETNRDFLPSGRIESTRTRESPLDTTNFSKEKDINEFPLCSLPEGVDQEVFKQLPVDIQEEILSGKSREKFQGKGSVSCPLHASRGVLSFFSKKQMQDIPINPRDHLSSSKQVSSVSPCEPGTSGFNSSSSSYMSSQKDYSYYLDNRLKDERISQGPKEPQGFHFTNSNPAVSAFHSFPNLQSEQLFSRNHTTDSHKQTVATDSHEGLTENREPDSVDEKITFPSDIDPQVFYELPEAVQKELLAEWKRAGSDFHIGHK

Molecular target: DNA polymerase iota (Homo sapiens) (UniProt Q9UNA4)
Assay: qHTS for Inhibitors of Polymerase Iota
Conditions: Pol iota fluorescent replication assay, 10 min; series mostly up to 115 µM
How it was run: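 Pol iota at 10 nM preincubated 15 min with compounds at room temperature; reaction started with fluorescent substrate, 50 nM final. Fluorescence read kinetically at 0 and 10 min; buffer-only wells as negative control.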
Potency is read from the fitted curve at half-maximal effect.

Potency, active:
CC1CCC/C=C/C(=O)c2c(O)cc(O)cc2CC(=O)O1 (stereo unspecified) 17.8 µM
C/C(=N\NC(=O)c1cccc(N/N=C(\C)c2ccco2)c1)c1ccco1 44.7 µM
COC(=O)CCC(=O)OC1(C)C(=O)C=C2C=C(c3ccsc3)OC=C2C1=O (stereo unspecified) 14.1 µM
O=C(O)c1ccc(-c2ccc(/C=C3\NC(=O)N(Cc4ccc(Cl)cc4)C3=O)o2)cc1Cl 1.41 µM
O=C(CN1C(=O)NC2(CCCCC2)C1=O)Nc1ccccc1Cl 89.1 µM
O=C1/C(=C/c2ccc(O)c(O)c2)SC(=S)N1Nc1ccccc1 14.1 µM

Potency, inactive:
CC(=O)c1ccc2c(c1)C1C=CCC1C(c1ccc(S(=O)(=O)N3CCOCC3)cc1)N2 (stereo unspecified)
CCCC(=O)Nc1nnc(SCc2cc(=O)n3ccccc3n2)s1
COC(=O)CCC(C)C1CCC2C3CCC4CC(O)CCC4(C)C3=CC(=O)C12C (stereo unspecified)
COc1ccccc1C(=O)N/C(=C/c1ccc(Br)cc1)C(=O)NCCO
CCN(CC)c1cc(C)c2cc(NC(=O)c3cc(OC)cc(OC)c3)ccc2n1
COc1ccccc1C(=O)Nc1cccc(C(=O)OCc2cc(=O)n3c4c(sc3n2)CCCC4)c1
CCCCNC(=O)c1cc(-c2cccnc2)nc2ccc(S(=O)(=O)NCCCC)cc12
O=C(COC(=O)CCC1CCCC1)Nc1nc2c(F)c(F)c(F)cc2s1
CCOc1ccc(OCCNC(=O)c2ccc3c(c2)nnn3CC)cc1
CCc1ccc(NC(=O)c2cccc(N3CCCS3(=O)=O)c2)cc1
CC(=O)Nc1cccc(C(=O)NCc2ccc3c(c2)CCN3C(C)=O)c1
Cc1ccc(NC(=O)CCCn2c(=O)c3cccn3c3cccnc32)c(Cl)c1
CCN(CC)CCNC(=O)Cn1ncc2c([nH]c3ccccc32)c1=O
COC(=O)c1ccc(C)c(NC(=O)CCSc2ccc(Cl)cc2)c1
COc1ccc(Cl)cc1NC(=O)CCC(=O)c1ccc(C)cc1
O=C(NC1CCCCCC1)c1ccc(CS(=O)Cc2ccccc2Cl)o1 (stereo unspecified)

Potency, inconclusive:
COc1ccc(CCn2c(C)cc(C(=O)COC(=O)c3ccc(NC(=O)CC#N)cc3)c2C)cc1 79.4 µM [inhibitor, partial curve, poor fit]
CCOc1ccc(CNC(=O)CN2C(=O)C(c3ccccc3)Oc3cccnc32)cc1 (stereo unspecified) 11.2 µM [inhibitor, partial curve, poor fit]
O=C(CSc1ccc2nnc(-c3cccc(F)c3)n2n1)N1CCCc2ccccc21 100 µM [inhibitor, single point]
Cc1cc(=O)n(Cc2c(F)cccc2Cl)c2c1c(C)nn2-c1cccc(F)c1 89.1 µM [inhibitor, single point]
CCOC(=O)C(Sc1ncc(C#N)c(N)n1)C(C)C (stereo unspecified) 28.2 µM [inhibitor, partial curve, poor fit]
COC(=O)c1[nH]c(C)c(/C(O)=C2\C(=O)C(=O)N(CCN3CCOCC3)C2c2cccnc2)c1C (stereo unspecified) 79.4 µM [inhibitor, partial curve]
COc1ccc(/C=C(/CC(=O)Nc2ccccc2)c2nc3ccccc3s2)cc1 15.8 µM [inhibitor, full curve, poor fit]
COc1ccc(OC)c(Nc2nc(=O)c3cccnc3s2)c1 20 µM [inhibitor, partial curve, poor fit]
Cc1ccc(-n2nc3c(N4CCC(C(=O)NCc5ccccc5C)CC4)nnc(C)c3c2C)cc1 56.2 µM [inhibitor, partial curve, poor fit]
Cc1cccc(OCC(=O)NNC(=O)CCCCC(=O)NNC(=O)COc2cccc(C)c2)c1 17.8 µM [inhibitor, partial curve]
O=C(Cn1c(=O)[nH]c2ccccc2c1=O)Nc1ccc2c(c1)OCCO2 56.2 µM [inhibitor, partial curve, poor fit]
CS(=O)(=O)N1CCN(/[N+]([O-])=N/Oc2ccc([N+](=O)[O-])cc2[N+](=O)[O-])CC1 12.6 µM [inhibitor, partial curve, poor fit]
COc1ccccc1CNC(=O)C(=O)NCC1OCCCN1S(=O)(=O)c1cccs1 (stereo unspecified) 89.1 µM [inhibitor, single point]
COc1ccc2c(OC)cc(-c3ccccc3)nc2c1 28.2 µM [inhibitor, single point]
C(=N\N=C\c1ccccn1)/c1ccccn1 39.8 µM [inhibitor, single point]
COC(=O)c1scc(C)c1NC(=O)c1cccc(C#N)c1 89.1 µM [inhibitor, single point]
CCCc1nc2ccccc2c(C(=O)OCc2nnc(-c3cc(OC)c(OC)c(OC)c3)o2)c1CC 25.1 µM [inhibitor, single point]
Cc1ccc(NC(=O)CC(=O)Nc2ccc(C)c(C)c2)cc1C 56.2 µM [inhibitor, partial curve, poor fit]
CCN(CC)C(=O)Cn1c(=O)n(-c2ccccc2)c(=O)c2sccc21 35.5 µM [inhibitor, partial curve, poor fit]
Cc1cc(-c2nnc(SCC(=O)Nc3ccc(Cl)cn3)n2N)n[nH]1 89.1 µM [inhibitor, single point]
CCOC(=O)c1ccc(N=c2scc(C)n2CC)cc1 2.51 µM [inhibitor, full curve, poor fit]
COc1ccccc1NC(=O)/C=C\c1ccco1 39.8 µM [inhibitor, partial curve]
CN(C)P(=O)(Nc1cccc2ccccc12)Nc1cccc2ccccc12 89.1 µM [inhibitor, single point]
CN(CC(=O)Nc1ccc(F)c(F)c1)S(=O)(=O)c1cccc2nsnc12 89.1 µM [inhibitor, single point]
O=C(Nc1nccs1)c1ccccn1 31.6 µM [inhibitor, partial curve, poor fit]
COC1=C/C(=C/c2c(N)n3nc(CC(=O)N4CCCC4)sc3nc2=O)C=CC1=O 31.6 µM [inhibitor, full curve, poor fit]
COc1cccc(Nc2nc(-c3cccc(N4C(=O)c5ccccc5C4=O)c3)cs2)c1 39.8 µM [inhibitor, single point]
OCCNCc1ccc(OCc2ccc(Cl)cc2Cl)cc1 89.1 µM [inhibitor, partial curve, poor fit]
Cc1nc(NCc2ccc(S(N)(=O)=O)cc2)c2c(C)c(C)sc2n1 39.8 µM [inhibitor, partial curve, poor fit]
COc1ccc(C(=O)NNC(=O)c2ccc(S(=O)(=O)N3CCCCC3)cc2)cc1 56.2 µM [inhibitor, partial curve, poor fit]
COc1cc(C(=O)OC(C)CN2CCCCC2)cc(OC)c1OC (stereo unspecified) 3.16 µM [inhibitor, full curve]
CN(C)C/C=C(\c1ccc(Br)cc1)c1cccnc1 89.1 µM [inhibitor, single point]
Cc1cc(C)nc(NC(=O)CSc2nc3ccccc3o2)n1 100 µM [inhibitor, partial curve, poor fit]
O=c1oc2c3c(ccc2c2ccccc12)OCN(Cc1cccc(Cl)c1)C3 50.1 µM [inhibitor, partial curve]
CC(C)[C@H](NC(=O)c1ccccc1)C(=O)OCC(=O)N1CCCc2ccccc21 0.631 µM [inhibitor, full curve, poor fit]
Cc1ccc(NC(=O)c2cccn2-c2nnc(N3CCCCC3)s2)cc1Cl 79.4 µM [inhibitor, partial curve, poor fit]
CCOc1ccc(-c2cnc(NCc3ccc(OC)cc3OC)n2C)cc1 3.98 µM [inhibitor, full curve, poor fit]
CCCCN(CC)CCCNC(=O)c1cc2c(-c3ccc(OC)c(OC)c3)nn(C)c2s1 50.1 µM [inhibitor, partial curve]
COc1ccccc1C(=O)Oc1cc(N)n(S(=O)(=O)c2ccccc2)n1 63.1 µM [inhibitor, single point]
NN1C(=O)/C(=C\c2ccco2)SC1=S 15.8 µM [inhibitor, full curve, poor fit]
CCc1c(C)sc(NC(=O)C2CCCO2)c1C#N (stereo unspecified) 22.4 µM [inhibitor, single point]
O=C(CN(C1CCCCC1)S(=O)(=O)c1ccccc1)NCc1ccco1 44.7 µM [inhibitor, partial curve, poor fit]
CCOc1ccc(C=NNc2ccc(S(=O)(=O)Nc3ccccc3C(=O)O)cc2[N+](=O)[O-])cc1 17.8 µM [inhibitor, partial curve, poor fit]
CCc1nnc(NC(=O)CSCc2cc(=O)c3ccc(C)cc3[nH]2)s1 70.8 µM [inhibitor, partial curve, poor fit]

4 neighbouring compounds already listed, quoted:
Potency, inconclusive:
CCN(CC)C(=O)Cn1c(=O)n(-c2ccccc2)c(=O)c2sccc21 35.5 µM [inhibitor, partial curve, poor fit]
Cc1cc(-c2nnc(SCC(=O)Nc3ccc(Cl)cn3)n2N)n[nH]1 89.1 µM [inhibitor, single point]
CCOC(=O)c1ccc(N=c2scc(C)n2CC)cc1 2.51 µM [inhibitor, full curve, poor fit]
COc1ccccc1NC(=O)/C=C\c1ccco1 39.8 µM [inhibitor, partial curve]
